Experimental data as given in patent US9814696B2, “Use of coumarin derivatives for the preparation of drugs for treating skin diseases” (UNIVERSITE PIERRE ET MARIE CURIE (PARIS 6), priority 2011, dated 2017).
At least one structure is not confirmed: it was looked up by name or label, or the drawing left a doubt.

Target: T1, KLK5 (Homo sapiens, UniProt Q9Y337)
T1 sequence (Q9Y337 23-293): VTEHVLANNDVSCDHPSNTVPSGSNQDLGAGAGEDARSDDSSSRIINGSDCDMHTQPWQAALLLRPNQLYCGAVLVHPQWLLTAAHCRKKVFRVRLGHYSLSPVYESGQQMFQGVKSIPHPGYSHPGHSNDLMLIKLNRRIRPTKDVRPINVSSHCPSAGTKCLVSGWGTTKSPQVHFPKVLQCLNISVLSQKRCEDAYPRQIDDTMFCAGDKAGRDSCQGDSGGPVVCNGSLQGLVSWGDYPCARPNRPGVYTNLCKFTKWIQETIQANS
Test: KLK5 enzyme inhibition assay, fluorogenic substrate Boc-Val-Pro-Arg-AMC
Type: biochemical
Conditions: Table B; among KLK5, KLK7 and KLK14
Protocol: Kallikreins KLK5, KLK7 and KLK14 activities were determined by monitoring the hydrolysis of the appropriate fluorogenic substrate (λexc=355, λem=460 nm) for 15 min at 37° C. in the presence of the untreated kallikrein (control) or kallikrein that had been incubated with a test compound. Substrate and compounds were previously dissolved in DMSO, with the final solvent concentration kept constant at 2% (v/v) (KLK 5 and 14), and 4% (v/v) (KLK7). The composition of the activity buffers (pH 8.0) was 100 mM Tris-HCl, 150 mM NaCl, 0.01% (v/v) Tween 20 for the KLK5 assay, and 100 mM Tris-HCl, 1M NaCl, 0.01% (v/v) Tween 20 in the KLK 7 and 14 assays. The final concentrations were 0.6 nM (KLK5) and 100 μM (Boc-Val-Pro-Arg-AMC) (KLK5 assay), 8 nM (KLK7) and 40 μM (Suc-Leu-Leu-Val-Tyr-AMC, AMC: 7-amino-4-methyl-coumarin) (KLK7 assay), and 0.17 nM (KLK14) and 10 μM (Boc-Val-Pro-Arg-AMC) (KLK14 assay). […] Initial rates determined in control experiments (V0) were considered to be 100% of the peptidase activity; initial rates below 100% were considered to be inhibitions. […] The values of IC50 were calculated by fitting the experimental data to the equation: % Inhibition=100×(1−Vi/V0)=100[I]0/(IC50+[I]0), or equation: % Inhibition=100[I]0^nH/(IC50^nH+[I]0^nH),nH is the Hill number. […]

## NCc1ccc2oc(=O)c(C(=O)Oc3ccccc3)cc2c1 [LP71]
  selective activity against enzyme: KLK5: KLK5
